Results as given in patent US20210153516A1, “COMPOSITION AND METHOD OF TREATING PLANTS AND PLANT PARTS WITH VOLATILE SPOILAGE ORGANISM CONTROLLING ACTIVES” (AGROFRESH INC., priority 2019, published 2021).

What was measured:
[1] = Volatile compound residue on mandarins during cold storage after dipping treatment
[2] = Volatile compound residue on mandarins during cold storage after spray treatment

OB1OCc2cc(F)ccc21 [5-fluoro-1-hydroxy-3H-2,1-benzoxaborole]
Residue on treated mandarins ([1]; 0 days in cold storage): 0.877 mg/kg | Residue on untreated mandarins mixed with treated mandarins ([1]; 0 days in cold storage): Non-detectable | Residue on treated mandarins ([1]; 3 days in cold storage): 1.168 mg/kg | Residue on untreated mandarins mixed with treated mandarins ([1]; 3 days in cold storage): 0.400 mg/kg | Residue on treated mandarins ([1]; 7 days in cold storage): 1.182 mg/kg | Residue on untreated mandarins mixed with treated mandarins ([1]; 7 days in cold storage): 0.403 mg/kg | Residue on treated mandarins ([2]; 0 days in cold storage): 0.649 mg/kg | Residue on untreated mandarins mixed with treated mandarins ([2]; 0 days in cold storage): Non- | Residue on treated mandarins ([2]; 3 days in cold storage): 0.505 mg/kg | Residue on untreated mandarins mixed with treated mandarins ([2]; 3 days in cold storage): 0.239 mg/kg | Residue on treated mandarins ([2]; 7 days in cold storage): 0.278 mg/kg | Residue on untreated mandarins mixed with treated mandarins ([2]; 7 days in cold storage): 0.190 mg/kg
